These are yes or no findings as the source states them, for the method shown. Some entries that bind do so weakly or less than the wild type. Tags and fused reporters may be left off the sequences shown.
Columns and labels:
[1] = target: biotinylated human MRN (E185) complex (Mre11, Rad50, Nbs1 E185) (human) (UniProt Q92878+P49959+O60934); assay: pull-down; 20 nM biotinylated MRN complex incubated with 45 nM Mdc1 (aa 1-740) in buffer A (100 mM NaCl, 25 mM Tris pH8, 10% glycerol, 1 mM DTT) 1 hour at 30°C, isolated with streptavidin-coated magnetic beads with 0.2% CHAPS at 4°C; western blot anti-Flag and anti-Nbs1; both purified
[2] = target: biotinylated human MRN (Q185) complex (Mre11, Rad50, Nbs1 Q185) (human) (UniProt Q92878+P49959+O60934); assay: as above

Protein sequences, listed by entry. Tags and fused reporters are not part of them. Lines headed by an entry give the natural chain unless they say otherwise; changes in a name come on top.
UniProt Q92878: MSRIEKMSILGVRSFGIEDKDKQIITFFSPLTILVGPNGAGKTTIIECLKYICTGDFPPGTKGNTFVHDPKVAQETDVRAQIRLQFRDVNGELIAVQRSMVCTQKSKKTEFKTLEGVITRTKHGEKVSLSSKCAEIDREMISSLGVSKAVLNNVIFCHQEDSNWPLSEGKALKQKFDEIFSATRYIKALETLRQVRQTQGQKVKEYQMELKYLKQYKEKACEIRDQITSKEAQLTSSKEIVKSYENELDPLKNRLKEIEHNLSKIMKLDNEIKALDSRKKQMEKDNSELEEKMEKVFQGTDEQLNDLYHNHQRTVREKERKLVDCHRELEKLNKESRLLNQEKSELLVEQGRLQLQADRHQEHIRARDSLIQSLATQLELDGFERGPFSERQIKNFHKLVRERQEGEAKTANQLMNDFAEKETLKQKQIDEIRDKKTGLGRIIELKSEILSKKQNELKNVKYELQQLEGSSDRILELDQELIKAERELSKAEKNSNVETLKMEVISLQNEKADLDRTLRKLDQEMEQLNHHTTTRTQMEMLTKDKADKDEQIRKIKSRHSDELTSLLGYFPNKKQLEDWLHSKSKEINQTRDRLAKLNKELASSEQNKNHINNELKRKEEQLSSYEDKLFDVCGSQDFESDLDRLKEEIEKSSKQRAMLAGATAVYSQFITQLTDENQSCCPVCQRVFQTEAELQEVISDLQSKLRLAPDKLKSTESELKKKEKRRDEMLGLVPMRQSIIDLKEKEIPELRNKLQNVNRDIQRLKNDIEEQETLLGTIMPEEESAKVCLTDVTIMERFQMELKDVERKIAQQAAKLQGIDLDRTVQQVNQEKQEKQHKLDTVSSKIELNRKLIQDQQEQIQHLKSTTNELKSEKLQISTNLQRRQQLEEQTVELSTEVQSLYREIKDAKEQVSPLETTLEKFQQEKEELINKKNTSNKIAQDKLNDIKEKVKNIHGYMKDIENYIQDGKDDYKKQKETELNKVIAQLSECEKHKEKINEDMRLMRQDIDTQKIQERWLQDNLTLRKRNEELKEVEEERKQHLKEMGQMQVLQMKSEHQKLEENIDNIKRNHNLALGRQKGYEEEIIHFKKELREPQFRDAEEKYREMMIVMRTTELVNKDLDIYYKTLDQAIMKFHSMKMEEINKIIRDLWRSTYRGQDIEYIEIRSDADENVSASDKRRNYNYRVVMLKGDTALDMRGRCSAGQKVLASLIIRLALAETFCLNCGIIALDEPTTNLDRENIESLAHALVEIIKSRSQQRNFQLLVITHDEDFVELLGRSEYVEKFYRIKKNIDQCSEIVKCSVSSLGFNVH
UniProt P49959: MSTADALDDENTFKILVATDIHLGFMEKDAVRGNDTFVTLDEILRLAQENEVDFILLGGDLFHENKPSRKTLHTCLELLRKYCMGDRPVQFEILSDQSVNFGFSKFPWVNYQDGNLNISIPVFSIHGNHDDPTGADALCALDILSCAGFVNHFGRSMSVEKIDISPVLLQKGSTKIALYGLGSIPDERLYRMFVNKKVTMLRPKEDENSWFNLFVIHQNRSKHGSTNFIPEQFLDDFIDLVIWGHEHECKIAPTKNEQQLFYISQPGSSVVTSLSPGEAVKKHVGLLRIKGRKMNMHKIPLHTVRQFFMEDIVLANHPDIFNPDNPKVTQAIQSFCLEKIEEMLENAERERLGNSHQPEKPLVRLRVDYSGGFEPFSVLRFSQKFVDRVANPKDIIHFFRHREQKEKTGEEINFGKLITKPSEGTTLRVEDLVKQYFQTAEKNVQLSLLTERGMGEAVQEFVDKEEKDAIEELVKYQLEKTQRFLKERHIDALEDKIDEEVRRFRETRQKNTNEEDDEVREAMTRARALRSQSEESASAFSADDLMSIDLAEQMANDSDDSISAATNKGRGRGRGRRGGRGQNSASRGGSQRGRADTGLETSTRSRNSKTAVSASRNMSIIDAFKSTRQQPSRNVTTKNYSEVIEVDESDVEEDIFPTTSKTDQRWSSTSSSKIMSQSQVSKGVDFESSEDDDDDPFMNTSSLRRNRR
UniProt O60934: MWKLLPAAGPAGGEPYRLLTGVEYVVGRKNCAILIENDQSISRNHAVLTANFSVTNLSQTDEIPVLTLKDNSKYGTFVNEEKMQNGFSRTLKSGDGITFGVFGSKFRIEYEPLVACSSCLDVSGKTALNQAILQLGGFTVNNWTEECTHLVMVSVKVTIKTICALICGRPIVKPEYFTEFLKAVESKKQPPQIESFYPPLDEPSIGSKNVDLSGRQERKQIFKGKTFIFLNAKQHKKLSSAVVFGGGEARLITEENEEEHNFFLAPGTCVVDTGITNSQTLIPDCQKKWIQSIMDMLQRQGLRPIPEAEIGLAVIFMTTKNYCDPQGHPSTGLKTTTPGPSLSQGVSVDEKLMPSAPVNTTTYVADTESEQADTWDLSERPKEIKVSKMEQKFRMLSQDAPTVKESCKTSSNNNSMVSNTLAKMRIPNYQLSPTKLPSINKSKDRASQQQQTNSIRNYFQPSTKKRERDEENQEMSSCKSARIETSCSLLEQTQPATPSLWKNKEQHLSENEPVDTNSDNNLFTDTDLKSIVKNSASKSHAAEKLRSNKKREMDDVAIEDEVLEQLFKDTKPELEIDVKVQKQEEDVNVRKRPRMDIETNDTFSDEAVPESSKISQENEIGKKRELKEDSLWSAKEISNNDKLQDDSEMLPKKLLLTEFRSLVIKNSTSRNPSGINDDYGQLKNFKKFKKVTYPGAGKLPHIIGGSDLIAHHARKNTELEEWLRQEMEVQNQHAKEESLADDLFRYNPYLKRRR

binding [1]: binds | binding [2]: binds
B1: N-terminal Flag-tagged fragment of Mdc1 containing amino acids 1 to 740 (domain or fragment, UniProt Q14676 1-740)
chain: MEDTQAIDWDVEEEEETEQSSESLRCNVEPVGRLHIFSGAHGPEKDFPLHLGKNVVGRMPDCSVALPFPSISKQHAEIEILAWDKAPILRDCGSLNGTQILRPPKVLSPGVSHRLRDQELILFADLLCQYHRLDVSLPFVSRGPLTVEETPRVQGETQPQRLLLAEDSEEEVDFLSERRMVKKSRTTSSSVIVPESDEEGHSPVLGGLGPPFAFNLNSDTDVEEGQQPATEEASSAARRGATVEAKQSEAEVVTEIQLEKDQPLVKERDNDTKVKRGAGNGVVPAGVILERSQPPGEDSDTDVDDDSRPPGRPAEVHLERAQPFGFIDSDTDAEEERIPATPVVIPMKKRKIFHGVGTRGPGAPGLAHLQESQAGSDTDVEEGKAPQAVPLEKSQASMVINSDTDDEEEVSAALTLAHLKESQPAIWNRDAEEDMPQRVVLLQRSQTTTERDSDTDVEEEELPVENREAVLKDHTKIRALVRAHSEKDQPPFGDSDDSVEADKSSPGIHLERSQASTTVDINTQVEKEVPPGSAIIHIKKHQVSVEGTNQTDVKAVGGPAKLLVVSLEEAWPLHGDCETDAEEGTSLTASVVADVRKSQLPAEGDAGAEWAAAVLKQERAHEVGAQGGPPVAQVEQDLPISRENLTDLVVDTDTLGESTQPQREGAQVPTGREREQHVGGTKDSEDNYGDSEDLDLQATQCFLENQGLEAVQSMEDEPTQAFMLTPPQELGPSHCSFQTT

Source: publication PMC2958818
